Measured values taken from publication PMC12024540 (Biomolecules, 2025).

Assay: general procedure: peptide synthesis; Rink amide (0.70 mmol/g loading capacity)
Conditions: whole synthesis

NHQVEEQLEWLSQRA
final HPLC purity: >99%

End groups of sequences in plain letters are not given here.
